Laboratory results published in PubChem BioAssay AID540276 (National Center for Advancing Translational Sciences (NCATS), 2011).
Where “and” joins values, the source holds several entries; their conditions need not be identical. Equal values may be shown once. About 5,400 (1.8%) of roughly 300,000 compounds were called active. The inconclusive results got no clear call from the source; some entries with a clear call stand among them for comparison. The call rests on the fitted dose curve; tested in HEK293 cells. Where the call is inconclusive, the potency comes from a doubtful curve fit.

Experiment: qHTS for inhibitors of binding or entry into cells for Marburg Virus
Conditions: Marburg virus pseudotyped entry inhibition, cell reporter; series mostly up to 37.8 µM
Potency means the concentration at half of the fitted maximal effect.

SMILES	Potency
Cc1cccc(C)c1NC(=O)CN(C)C(=O)c1ccc(-c2cccc(C(F)(F)F)c2)o1	inconclusive: 10 µM [inhibitor, single point]
C=CCOC(=O)C1=C(C)N(CC)C(=O)NC1c1ccccc1 (configuration not stated)	inactive
COC(=O)c1cc(NC(=O)CN2C(=O)C(=O)N(C3CCCC3)C2=O)cc(C(=O)OC)c1	inconclusive: 0.708 µM [inhibitor, partial curve, poor fit]
O=[N+]([O-])c1cccc(-n2nnnc2CN2CCCC2)c1	inconclusive: 0.282 µM [inhibitor, partial curve, poor fit]
CCc1ccc(NC(=O)CC(NCc2cccnc2)C(=O)O)cc1 (configuration not stated)	inactive
Cc1ccc2nc(Cl)c(/C=N/Nc3nc(C)cc(C)n3)c(=O)n2c1	inconclusive: 20.6 µM [inhibitor, single point]
Cc1ccc(/C=C/c2nc3ccccc3s2)s1	inconclusive: 10 µM [inhibitor, partial curve, poor fit]
COc1ccccc1CC(=O)Nc1ccc(-c2noc(COc3ccc(Br)cc3)n2)cc1	inconclusive: 10.3 µM [inhibitor, partial curve, poor fit]
Cc1ccc(C)c(S(=O)(=O)N2CCN(C(=O)CN3C(=O)C4CC=CCC4C3=O)CC2)c1 (configuration not stated)	inactive
COC(=O)C1=C(C)N(C)C(=S)N(C)C1c1cccc(Br)c1 (configuration not stated)	inconclusive: 5.62 µM [activator, single point]
CN(C)C=Nc1ncc2c3ccccc3n(CCN(C)C)c2c1C#N	active: 11.2 µM
CC1(C)Oc2ccc(NC(=O)c3ccco3)cc2O1	inactive
Cc1cccnc1NC(=O)Nc1cccc2ccccc12	inactive
Cc1ccc(-c2csc(NC(=O)c3ccc(S(=O)(=O)N4CCc5ccccc54)cc3)n2)cc1	inactive
Cc1ccc(C(=O)Nc2ccccc2N2CCCC2)cc1	inactive
Cc1ccc(NC(=O)CN2c3cccc4cccc(c34)S2(=O)=O)cc1S(=O)(=O)N1CCOCC1	inconclusive: 6.31 µM [inhibitor, single point]
CCNC(=O)NC(=O)C(C)Sc1ncc(C(F)(F)F)cc1Cl (configuration not stated)	inconclusive: 1.41 µM [inhibitor, partial curve, poor fit]
COc1ccc(C(=O)Nc2ccc3ncccc3c2)cc1	inconclusive: 10 µM [inhibitor, partial curve, poor fit]
COc1ccccc1NC(=O)N1CCN(c2ccc3nnc(-c4ccc(F)cc4)n3n2)CC1	inconclusive: 5.01 µM [inhibitor, full curve] and inconclusive: 10 µM [inhibitor, partial curve, poor fit]
Cc1nnc(SCC(=O)NCc2ccco2)[nH]c1=O	inactive
COc1cc2c(cc1OC)-c1cc(NC3CCCCCCC3)nc(=O)n1CC2	inconclusive: 35.5 µM [inhibitor, single point]

Single entries from the entries so far:
CCc1ccc(NC(=O)CC(NCc2cccnc2)C(=O)O)cc1 (configuration not stated) | Potency: inactive
Cc1ccc(C(=O)Nc2ccccc2N2CCCC2)cc1 | Potency: inactive

The listing continues.

SMILES	Potency
CC(=O)OC1C(N2CCCCC2)c2c(ccc(/C=C/C(=O)N3CCCCC3)c2O)OC1(C)C (configuration not stated)	inconclusive: 22.4 µM [activator, partial curve, poor fit]
O=C(CSc1nc(O)c(-c2ccccc2)c(=O)[nH]1)N1CCOCC1	inconclusive: 14.1 µM [inhibitor, partial curve, poor fit]
O=C(CNc1cccc2ccccc12)N/N=C/c1ccc(C(=O)O)cc1	inconclusive: 2.51 µM [inhibitor, partial curve, poor fit]
Cc1cc(N(CCO)CCO)ccc1N=Nc1cc(F)ccc1F	inconclusive: 6.31 µM [activator, partial curve]
CCOc1ccc2nc(N3CCCC(C(=O)NCCc4ccc(Cl)cc4)C3)sc2c1 (configuration not stated)	inactive
O=C(C1CCCN(Cc2ccccc2Br)C1)N1CCCCC1 (configuration not stated)	inconclusive: 20 µM [inhibitor, partial curve, poor fit]
c1ccc(CCN=C2CCCc3c2[nH]c2ccccc32)cc1	inactive
COCCCNC(=S)N/N=C/c1ccc(OC)cc1	inconclusive: 4.47 µM [activator, single point]
Cc1cccc(C(=O)OCc2cnc(Cl)s2)c1	inactive
Clc1ccc(C2=CSC3=Nc4cccc5cccc(c45)N23)cc1	inconclusive: 32.6 µM [inhibitor, single point]
COc1ccccc1-c1cc(C(=O)Nc2cc(C)n(Cc3ccc(Cl)cc3)n2)no1	inconclusive: 32.6 µM [inhibitor, single point]
COc1cc(OC)cc(N(C(=O)CNC(=O)c2ccco2)C(C(=O)NCC2CCCO2)c2ccccc2)c1 (configuration not stated)	inconclusive: 3.98 µM [inhibitor, partial curve, poor fit]
O=C(c1ccc(NS(=O)(=O)c2ccccc2)cc1)N1CCOCC1	inconclusive: 4.47 µM [inhibitor, partial curve, poor fit]
Cc1cc2c(C)cc(=O)[nH]c2cc1NC(=O)CCl	inactive
Cc1ccc(Cl)cc1NC1=C/C(=N\S(=O)(=O)c2cccs2)c2ccccc2C1=O	inconclusive: 5.8 µM [inhibitor, full curve, poor fit] and inconclusive: 3.16 µM [inhibitor, full curve, poor fit]
CC1CCN(Cc2nnnn2-c2ccc(Cl)cc2)CC1	inconclusive: 0.1 µM [activator, full curve, poor fit]
O=C(O)CC/C(=N\NC(=O)CNC(=O)/C=C/c1ccccc1)c1ccccc1	inconclusive: 35.5 µM [inhibitor, single point]
CCc1c(C)nc2ncnn2c1NCCc1ccc(OC)c(OC)c1	inactive
CC(C(=O)Nc1ccc2c(c1)OCCO2)N1Cc2ccccc2C1=O (configuration not stated)	inactive
COc1ccc(O[C@H]2C=C[C@@H](c3ccccc3)O[C@H]2COC(=O)CC/C(C)=N\OC[C@@H](C)[C@H](OCc2ccccc2)C(C)C)cc1	inconclusive: 0.266 µM [inhibitor, partial curve, poor fit]
CCN(c1ccccc1)S(=O)(=O)c1ccc(Cl)c(NC(=O)CSc2nncs2)c1	inconclusive: 10 µM [inhibitor, partial curve, poor fit]

Pulled by structure from above, two records:
SMILES	Potency
COc1cc2c(cc1OC)-c1cc(NC3CCCCCCC3)nc(=O)n1CC2	inconclusive: 35.5 µM [inhibitor, single point]
Cc1ccc(NC(=O)CN2c3cccc4cccc(c34)S2(=O)=O)cc1S(=O)(=O)N1CCOCC1	inconclusive: 6.31 µM [inhibitor, single point]
